Drawing on article PMC8143632, this text covers binding for eight molecules.

The chains behind the UniProt entries cited, without tags or fusion partners.
UniProt Q9UBU8: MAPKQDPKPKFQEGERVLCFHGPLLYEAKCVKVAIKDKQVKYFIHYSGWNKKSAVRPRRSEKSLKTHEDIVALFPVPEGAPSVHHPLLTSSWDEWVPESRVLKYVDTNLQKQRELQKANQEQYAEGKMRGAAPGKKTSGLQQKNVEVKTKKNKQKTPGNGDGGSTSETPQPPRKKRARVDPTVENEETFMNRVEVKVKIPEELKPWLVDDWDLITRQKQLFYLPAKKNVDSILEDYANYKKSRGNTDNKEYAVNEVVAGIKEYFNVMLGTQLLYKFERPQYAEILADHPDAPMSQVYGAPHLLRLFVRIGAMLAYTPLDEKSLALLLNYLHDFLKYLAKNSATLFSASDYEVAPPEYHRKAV
UniProt Q96QT6: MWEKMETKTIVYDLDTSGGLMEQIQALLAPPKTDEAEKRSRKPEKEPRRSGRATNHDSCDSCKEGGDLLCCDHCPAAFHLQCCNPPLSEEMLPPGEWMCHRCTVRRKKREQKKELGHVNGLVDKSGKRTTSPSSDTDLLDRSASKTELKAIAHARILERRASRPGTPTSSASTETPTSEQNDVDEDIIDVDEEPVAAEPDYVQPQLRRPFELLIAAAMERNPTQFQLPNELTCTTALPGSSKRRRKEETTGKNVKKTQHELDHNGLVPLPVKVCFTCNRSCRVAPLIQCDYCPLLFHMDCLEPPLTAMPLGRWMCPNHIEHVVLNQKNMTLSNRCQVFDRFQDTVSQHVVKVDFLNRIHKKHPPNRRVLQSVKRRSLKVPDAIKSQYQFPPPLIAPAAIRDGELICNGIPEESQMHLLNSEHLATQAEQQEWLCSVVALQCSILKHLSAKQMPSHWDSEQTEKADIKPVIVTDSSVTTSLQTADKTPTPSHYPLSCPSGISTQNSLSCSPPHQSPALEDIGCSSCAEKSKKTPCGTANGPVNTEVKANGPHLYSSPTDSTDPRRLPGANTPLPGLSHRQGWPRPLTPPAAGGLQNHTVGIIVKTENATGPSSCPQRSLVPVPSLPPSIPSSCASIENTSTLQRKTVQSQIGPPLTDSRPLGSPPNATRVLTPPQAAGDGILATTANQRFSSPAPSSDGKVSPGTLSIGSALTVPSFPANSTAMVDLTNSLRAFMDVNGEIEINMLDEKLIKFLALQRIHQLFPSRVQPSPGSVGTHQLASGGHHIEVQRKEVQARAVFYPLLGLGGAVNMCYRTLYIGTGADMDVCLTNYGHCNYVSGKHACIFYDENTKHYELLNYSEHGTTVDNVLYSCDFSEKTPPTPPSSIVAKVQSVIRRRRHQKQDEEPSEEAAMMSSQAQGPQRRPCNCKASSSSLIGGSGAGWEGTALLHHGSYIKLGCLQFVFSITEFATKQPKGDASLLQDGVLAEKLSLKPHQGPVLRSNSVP

Common to all, as to assay: affinity purification with mass spectrometry; Halo-tagged bait stably expressed in Flp-In-293 cells; lysate with HL-SAN nuclease 2 U/ml for 2 h at 4 °C; bait captured on Magne HaloTag Beads, eluted with AcTEV Protease; MudPIT; enrichment over cells without transgene by QSPEC (Z-statistic >= 3 and log2 fold change >= 2)
Assay [1] addresses Halo-tagged MORF4L1 (human) (UniProt Q9UBU8).
Another assay has as its target T1, SIN3A-HaloTag (human) (UniProt Q96ST3).
T1 sequence: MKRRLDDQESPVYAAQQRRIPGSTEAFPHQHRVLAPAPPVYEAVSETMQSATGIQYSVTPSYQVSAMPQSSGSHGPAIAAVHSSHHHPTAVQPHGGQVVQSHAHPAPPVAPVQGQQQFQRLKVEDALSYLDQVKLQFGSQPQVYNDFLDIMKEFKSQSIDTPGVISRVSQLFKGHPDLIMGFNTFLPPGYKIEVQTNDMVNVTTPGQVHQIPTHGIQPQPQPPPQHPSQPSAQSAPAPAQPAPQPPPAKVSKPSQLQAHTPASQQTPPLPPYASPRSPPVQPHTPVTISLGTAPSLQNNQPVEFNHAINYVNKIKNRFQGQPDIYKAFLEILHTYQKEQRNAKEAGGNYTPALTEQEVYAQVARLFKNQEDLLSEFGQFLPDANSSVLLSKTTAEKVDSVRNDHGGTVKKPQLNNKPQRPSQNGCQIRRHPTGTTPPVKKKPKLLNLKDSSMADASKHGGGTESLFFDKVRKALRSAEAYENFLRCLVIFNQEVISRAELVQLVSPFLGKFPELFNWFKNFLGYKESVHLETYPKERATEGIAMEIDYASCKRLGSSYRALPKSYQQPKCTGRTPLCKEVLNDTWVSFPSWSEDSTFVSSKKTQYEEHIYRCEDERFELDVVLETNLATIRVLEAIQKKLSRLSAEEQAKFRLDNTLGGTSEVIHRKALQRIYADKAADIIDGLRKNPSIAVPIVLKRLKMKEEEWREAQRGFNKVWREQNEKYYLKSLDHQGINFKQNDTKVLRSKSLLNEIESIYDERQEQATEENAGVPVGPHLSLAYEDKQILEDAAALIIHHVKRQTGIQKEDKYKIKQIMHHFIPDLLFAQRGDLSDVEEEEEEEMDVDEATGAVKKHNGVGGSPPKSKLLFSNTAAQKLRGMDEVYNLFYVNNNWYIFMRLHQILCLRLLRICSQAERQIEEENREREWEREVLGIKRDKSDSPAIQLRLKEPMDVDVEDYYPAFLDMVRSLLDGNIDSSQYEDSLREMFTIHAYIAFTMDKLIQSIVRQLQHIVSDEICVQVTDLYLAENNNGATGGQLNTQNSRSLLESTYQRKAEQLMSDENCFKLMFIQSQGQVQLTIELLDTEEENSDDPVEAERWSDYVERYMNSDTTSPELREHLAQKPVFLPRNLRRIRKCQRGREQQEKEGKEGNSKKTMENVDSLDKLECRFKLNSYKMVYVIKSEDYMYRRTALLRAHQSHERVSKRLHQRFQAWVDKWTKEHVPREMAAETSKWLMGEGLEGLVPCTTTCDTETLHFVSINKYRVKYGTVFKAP

The target in assay [2] is Halo-tagged PHF12 (human) (UniProt Q96QT6).
The next assay concerns the target T2, SIN3B_2-HaloTag (human) (UniProt O75182).
T2 sequence: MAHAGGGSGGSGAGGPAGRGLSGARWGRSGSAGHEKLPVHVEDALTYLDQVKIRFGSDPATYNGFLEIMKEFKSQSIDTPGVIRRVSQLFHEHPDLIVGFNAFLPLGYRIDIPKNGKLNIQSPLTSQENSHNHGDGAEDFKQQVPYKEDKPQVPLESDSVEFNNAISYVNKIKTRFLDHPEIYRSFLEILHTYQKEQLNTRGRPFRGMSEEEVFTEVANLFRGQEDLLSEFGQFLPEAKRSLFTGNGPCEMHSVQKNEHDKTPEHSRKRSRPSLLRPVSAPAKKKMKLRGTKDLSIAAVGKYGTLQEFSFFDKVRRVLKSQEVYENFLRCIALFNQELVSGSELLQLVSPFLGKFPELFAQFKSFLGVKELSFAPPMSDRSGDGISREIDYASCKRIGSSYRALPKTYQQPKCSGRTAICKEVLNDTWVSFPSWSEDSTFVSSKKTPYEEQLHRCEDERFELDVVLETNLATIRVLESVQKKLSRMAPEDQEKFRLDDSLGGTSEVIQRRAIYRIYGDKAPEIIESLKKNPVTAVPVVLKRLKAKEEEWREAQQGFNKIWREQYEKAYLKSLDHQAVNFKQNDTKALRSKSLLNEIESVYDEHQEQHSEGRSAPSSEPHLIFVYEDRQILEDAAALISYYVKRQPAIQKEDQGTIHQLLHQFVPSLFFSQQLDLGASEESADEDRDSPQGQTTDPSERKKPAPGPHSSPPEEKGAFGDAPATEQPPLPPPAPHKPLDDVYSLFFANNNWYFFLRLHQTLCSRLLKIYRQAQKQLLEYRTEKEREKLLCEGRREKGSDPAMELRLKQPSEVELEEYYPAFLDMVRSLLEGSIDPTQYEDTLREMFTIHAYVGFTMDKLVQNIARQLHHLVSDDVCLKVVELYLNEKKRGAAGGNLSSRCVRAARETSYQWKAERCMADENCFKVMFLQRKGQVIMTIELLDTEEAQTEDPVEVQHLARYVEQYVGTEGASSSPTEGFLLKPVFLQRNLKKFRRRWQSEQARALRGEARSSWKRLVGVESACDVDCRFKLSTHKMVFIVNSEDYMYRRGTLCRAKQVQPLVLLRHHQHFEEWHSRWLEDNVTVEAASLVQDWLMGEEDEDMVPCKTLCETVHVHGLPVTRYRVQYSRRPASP

These are yes or no findings as the source states them, for the method shown. In cells and extracts the contact can be indirect. Here binding means that the protein was enriched with, or labelled near, the bait; the list need not be complete. For part of these data: A no says only that the protein was not detected with the bait. For part of these data: Where a sequence is shown, tags or fusion partners need not be part of it.

B1: SAP30 (protein, UniProt O75446 1-220)
chain: MNGFTPDEMSRGGDAAAAVAAVVAAAAAAASAGNGTGAGTGAEVPGAGAVSAAGPPGAAGPGPGQLCCLREDGERCGRAAGNASFSKRIQKSISQKKVKIELDKSARHLYICDYHKNLIQSVRNRRKRKGSDDDGGDSPVQDIDTPEVDLYQLQVNTLRRYKRHFKLPTRPGLNKAQLVEIVGCHFRSIPVNEKDTLTYFIYSVKNDKNKSDLKVDSGVH
Consider B1, for which the binding result is “no binding” in assay [1], “binds” with SIN3A-HaloTag (human) and “no binding” in assay [2].

B2: BRMS1 (protein, UniProt Q9HCU9 1-246)
chain: MPVQPPSKDTEEMEAEGDSAAEMNGEEEESEEERSGSQTESEEESSEMDDEDYERRRSECVSEMLDLEKQFSELKEKLFRERLSQLRLRLEEVGAERAPEYTEPLGGLQRSLKIRIQVAGIYKGFCLDVIRNKYECELQGAKQHLESEKLLLYDTLQGELQERIQRLEEDRQSLDLSSEWWDDKLHARGSSRSWDSLPPSKRKKAPLVSGPYIVYMLQEIDILEDWTAIKKARAAVSPQKRKSDGP
Consider B2, for which the binding entry in assay [1] is on record as “no binding”; with SIN3A-HaloTag (human), “binds”; in assay [2], “no binding”.

B3: SAP30L (protein, UniProt Q9HAJ7 1-183)
chain: MNGFSTEEDSREGPPAAPAAAAPGYGQSCCLIEDGERCVRPAGNASFSKRVQKSISQKKLKLDIDKSVRHLYICDFHKNFIQSVRNKRKRKTSDDGGDSPEHDTDIPEVDLFQLQVNTLRRYKRHYKLQTRPGFNKAQLAETVSRHFRNIPVNEKETLAYFIYMVKSNKSRLDQKSEGGKQLE
On to B3, for which the binding result in assay [1] was “no binding”; in the assay with SIN3A-HaloTag (human), “binds”; in assay [2] it was “no binding”.

B4: ING2 (protein, UniProt Q9H160 1-280)
chain: MLGQQQQQLYSSAALLTGERSRLLTCYVQDYLECVESLPHDMQRNVSVLRELDNKYQETLKEIDDVYEKYKKEDDLNQKKRLQQLLQRALINSQELGDEKIQIVTQMLELVENRARQMELHSQCFQDPAESERASDKAKMDSSQPERSSRRPRRQRTSESRDLCHMANGIEDCDDQPPKEKKSKSAKKKKRSKAKQEREASPVEFAIDPNEPTYCLCNQVSYGEMIGCDNEQCPIEWFHFSCVSLTYKPKGKWYCPKCRGDNEKTMDKSTEKTKKDRRSR
For the molecule B4, the binding result in assay [1] and in assay [2] was “no binding” throughout.

B5: GATAD1 (protein, UniProt Q8WUU5 1-269)
chain: MPLGLKPTCSVCKTTSSSMWKKGAQGEILCHHCTGRGGAGSGGAGSGAAGGTGGSGGGGFGAATFASTSATPPQSNGGGGGKQSKQEIHRRSARLRNTKYKSAPAAEKKVSTKGKGRRHIFKLKNPIKAPESVSTIITAESIFYKGVYYQIGDVVSVIDEQDGKPYYAQIRGFIQDQYCEKSAALTWLIPTLSSPRDQFDPASYIIGPEEDLPRKMEYLEFVCHAPSEYFKSRSSPFPTVPTRPEKGYIWTHVGPTPAITIKESVANHL
With B5, in the assay with SIN3B_2-HaloTag (human), the binding result is on record as “binds”.

B6: SUDS3 (protein, UniProt Q9H7L9 1-328)
chain: MSAAGLLAPAPAQAGAPPAPEYYPEEDEELESAEDDERSCRGRESDEDTEDASETDLAKHDEEDYVEMKEQMYQDKLASLKRQLQQLQEGTLQEYQKRMKKLDQQYKERIRNAELFLQLETEQVERNYIKEKKAAVKEFEDKKVELKENLIAELEEKKKMIENEKLTMELTGDSMEVKPIMTRKLRRRPNDPVPIPDKRRKPAPAQLNYLLTDEQIMEDLRTLNKLKSPKRPASPSSPEHLPATPAESPAQRFEARIEDGKLYYDKRWYHKSQAIYLESKDNQKLSCVISSVGANEIWVRKTSDSTKMRIYLGQLQRGLFVIRRRSAA
Take B6: the binding entry in assay [1] is “no binding”; with SIN3B_2-HaloTag (human), “binds”; in the assay with SIN3A-HaloTag (human), “binds”; in assay [2], “no binding”.

B7: FAM60A (protein, UniProt Q9NP50 1-221)
chain: MFGFHKPKMYRSIEGCCICRAKSSSSRFTDSKRYEKDFQSCFGLHETRSGDICNACVLLVKRWKKLPAGSKKNWNHVVDARAGPSLKTTLKPKKVKTLSGNRIKSNQISKLQKEFKRHNSDAHSTTSSASPAQSPCYSNQSDDGSDTEMASGSNRTPVFSFLDLTYWKRQKICCGIIYKGRFGEVLIDTHLFKPCCSNKKAAAEKPEEQGPEPLPISTQEW
For the molecule B7, in the assay with SIN3A-HaloTag (human), the binding entry is on record as “binds”.

B8: BRMS1L (protein, UniProt Q5PSV4 1-323)
chain: MPVHSRGDKKETNHHDEMEVDYAENEGSSSEDEDTESSSVSEDGDSSEMDDEDCERRRMECLDEMSNLEKQFTDLKDQLYKERLSQVDAKLQEVIAGKAPEYLEPLATLQENMQIRTKVAGIYRELCLESVKNKYECEIQASRQHCESEKLLLYDTVQSELEEKIRRLEEDRHSIDITSELWNDELQSRKKRKDPFSPDKKKPVVVSGPYIVYMLQDLDILEDWTTIRKAMATLGPHRVKTEPPVKLEKHLHSARSEEGRLYYDGEWYIRGQTICIDKKDECPTSAVITTINHDEVWFKRPDGSKSKLYISQLQKGKYSIKHS
For the molecule B8, the binding entry in assay [1] is “no binding”; in the assay with SIN3B_2-HaloTag (human) it was “binds”; with SIN3A-HaloTag (human) it was “binds”; in assay [2], “no binding”.
